Results on six molecules are retold here after article PMC6156765.

Sequences of proteins named here, by UniProt entry; tags and fusion partners are left off. A change or cut given only in a name is not applied to a line headed by its entry.
UniProt P62259: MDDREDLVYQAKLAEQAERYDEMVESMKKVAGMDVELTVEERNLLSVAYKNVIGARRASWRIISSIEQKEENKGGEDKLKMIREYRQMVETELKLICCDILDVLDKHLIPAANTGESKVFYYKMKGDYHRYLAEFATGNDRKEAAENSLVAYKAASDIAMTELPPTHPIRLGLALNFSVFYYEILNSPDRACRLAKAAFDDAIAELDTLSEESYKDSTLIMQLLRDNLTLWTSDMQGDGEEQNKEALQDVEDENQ
UniProt P63101: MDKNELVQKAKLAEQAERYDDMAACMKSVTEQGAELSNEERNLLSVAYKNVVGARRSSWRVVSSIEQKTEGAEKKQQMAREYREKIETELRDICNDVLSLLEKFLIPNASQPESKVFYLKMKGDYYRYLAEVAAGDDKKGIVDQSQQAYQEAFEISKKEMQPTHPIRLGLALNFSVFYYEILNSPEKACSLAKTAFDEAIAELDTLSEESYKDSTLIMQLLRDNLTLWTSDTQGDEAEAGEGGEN
UniProt P68510: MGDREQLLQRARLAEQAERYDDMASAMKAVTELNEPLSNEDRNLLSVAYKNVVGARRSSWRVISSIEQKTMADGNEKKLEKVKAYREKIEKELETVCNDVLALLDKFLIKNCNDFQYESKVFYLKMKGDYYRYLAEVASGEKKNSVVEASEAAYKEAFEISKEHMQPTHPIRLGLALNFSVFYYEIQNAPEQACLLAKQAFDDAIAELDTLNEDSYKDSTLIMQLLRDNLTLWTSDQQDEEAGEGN

The labels stand for the following.
B1: 14-3-3 protein γ (protein, UniProt P61982 1-247)
chain: MVDREQLVQKARLAEQAERYDDMAAAMKNVTELNEPLSNEERNLLSVAYKNVVGARRSSWRVISSIEQKTSADGNEKKIEMVRAYREKIEKELEAVCQDVLSLLDNYLIKNCSETQYESKVFYLKMKGDYYRYLAEVATGEKRATVVESSEKAYSEAHEISKEHMQPTHPIRLGLALNYSVFYYEIQNAPEQACHLAKTAFDDAIAELDTLNEDSYKDSTLIMQLLRDNLTLWTSDQQDDDGGEGNN
B2: IRAP (insulin-responsive aminopeptidase) (protein, UniProt Q8C129 1-1025)
chain: MESFTNDRLQLPRNMIENSMFEEEPDVVDLAKEPCLHPLEPDEVEYEPRGSRLLVRGLGEHEMDEDEEDYESSAKLLGMSFMNRSSGLRNSAAGYRQSPDGTCSLPSARTLVICVFVIVVAVSVIMVIYLLPRCTFTKEGCHKTNQSAELIQPVATNGKVFPWAQIRLPTAIIPLCYELSLHPNLTSMTFRGSVTISLQALQDTRDIILHSTGHNISRVTFMSAVSSQEKQVEILEYPYHEQIAVVAPEPLLTGHNYTLKIEYSANISNSYYGFYGITYTDKSNEKKYFAATQFEPLAARSAFPCFDEPAFKATFIIKITRNEHHTALSNMPKKSSVPAEEGLIQDEFSESVKMSTYLVAFIVGEMRNLSQDVNGTLVSVYAVPEKIGQVHHALDTTIKLLEFYQTYFEIQYPLKKLDLVAIPDFEAGAMENWGLLTFREETLLYDNATSSVADRKLVTKIIAHELAHQWFGNLVTMQWWNDLWLNEGFATFMEYFSVEKIFKELNSYEDFLDARFKTMRKDSLNSSHPISSSVQSSEQIEEMFDSLSYFKGASLLLMLKSYLSEDVFRHAVILYLHNHSYAAIQSDDLWDSFNEVTDKTLDVKKMMKTWTLQKGFPLVTVQRKGTELLLQQERFFLRMQPESQPSDTSHLWHIPISYVTDGRNYSEYRSVSLLDKKSDVINLTEQVQWVKVNSNMTGYYIVHYAHDDWTALINQLKRNPYVLSDKDRANLINNIFELAGLGKVPLRMAFDLIDYLKNETHTAPITEALFQTNLIYNLLEKLGHMDLSSRLVARVHKLLQNQIQQQTWTDEGTPSMRELRSALLEFACAHSLENCTTMATNLFDSWMASNGTQSLPTDVMVTVFKVGARTEKGWLFLFSMYSSMGSEAEKNKILEALASSEDVHKLYWLMKSSLDGDIIRTQKLSLIIRTVGRHFPGHLLAWDFVKENWNKLVHKFHLGSYTIQSIVAGSTHLFSTKTHLSEVQAFFENQSEATLKLRCVQEALEVIQLNIQWMVRNLKTLSQWL
B3: 14-3-3 protein α/β (protein, UniProt Q9CQV8 1-246)
chain: MTMDKSELVQKAKLAEQAERYDDMAAAMKAVTEQGHELSNEERNLLSVAYKNVVGARRSSWRVISSIEQKTERNEKKQQMGKEYREKIEAELQDICNDVLELLDKYLILNATQAESKVFYLKMKGDYFRYLSEVASGENKQTTVSNSQQAYQEAFEISKKEMQPTHPIRLGLALNFSVFYYEILNSPEKACSLAKTAFDEAIAELDTLNEESYKDSTLIMQLLRDNLTLWTSENQGDEGDAGEGEN

No constants are given. Whether binding was seen depends on the method and setting. Binding seen in cells or lysates may run through a third protein. These calls come from enrichment with a bait or labelling near it, and not all partners need be listed. Tags and fused reporters may be left off the sequences shown.

The target in this assay is T1, GFP-PTB1 + 2 (TBC1D1 tandem N-terminal PTB1-PTB2 domains, residues 1-381) (human) (UniProt Q86TI0).
T1 sequence: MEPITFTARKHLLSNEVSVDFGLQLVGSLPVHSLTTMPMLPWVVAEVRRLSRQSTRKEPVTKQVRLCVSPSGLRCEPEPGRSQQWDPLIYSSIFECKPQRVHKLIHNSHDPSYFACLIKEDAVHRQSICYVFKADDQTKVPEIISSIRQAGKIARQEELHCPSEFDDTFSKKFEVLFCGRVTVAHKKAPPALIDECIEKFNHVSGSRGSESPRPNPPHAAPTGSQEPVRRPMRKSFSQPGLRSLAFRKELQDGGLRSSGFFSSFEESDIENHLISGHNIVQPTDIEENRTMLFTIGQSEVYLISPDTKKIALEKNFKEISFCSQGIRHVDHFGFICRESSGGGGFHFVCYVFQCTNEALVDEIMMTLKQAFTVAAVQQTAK
As to the kind of experiment: affinity purification with mass spectrometry; SILAC; GFP-trap beads (4°C, 1 h) from lysates of C2C12 myotubes expressing GFP-PTB1 + 2 or GFP, precipitation buffer (50 mM Tris-HCl pH 7.4, 50 mM NaCl, 0.5% NP40), four washes, Nano LC-MS/MS.
With “14-3-3 protein ε (from UniProt P62259 1-255)”, the binding result is on record as “binds”.

For “14-3-3 protein ζ/δ (from UniProt P63101 1-245)”, the binding result is “binds”.

For the molecule “14-3-3 protein η (from UniProt P68510 1-246)”, the binding result is on record as “binds”.

As to B1, the binding result is “binds”.

Take B2: the binding result is “binds”.

As to B3, the binding result is recorded as “binds”.
